Measured values: PubChem BioAssay AID493014 (National Center for Advancing Translational Sciences (NCATS), 2011)
The list shows a part of the results. The main result of the screen is listed elsewhere. These columns were measured beside it and carry no call. Most of these compounds were active or inconclusive in the main read-out, so they are no random draw. Words in brackets tell the shape of the fitted curve; partial curves, single points and poor fits give uncertain potencies.

Test: qHTS Assay to Find Inhibitors of Chronic Active B-Cell Receptor Signaling
Conditions: ABC-DLBCL IkBa-CBG/CBR reporter, luminescence ratio (green luciferase fused to IkBa over red control in TMD8 lymphoma cells), 4 h
Summary of the method: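 Doxycycline induced both beetle luciferases in TMD8 lymphoma cells; IKK-driven degradation limits the IkappaBalpha-fused green signal, while red luminescence normalises for cell number and nonspecific effects. Compounds tested up to 46 uM, 4 hrs.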

[1] = measured here: CBR red luminescence, cell number
[2] = measured here: IkBa-CBG green luminescence

Row | SMILES | AC50 [1] | AC50 [2]
1 | O=C(CCC(=O)c1ccc(F)cc1)Nc1cccnc1 | 6.51 µM [rising, single point] | 
2 | COc1cc(NC(=O)c2cc([N+](=O)[O-])ccc2NC(=O)CNC2CCCCC2)cc(OC)c1 | 11.2 µM [falling, partial curve] | 
3 | Clc1cccc(Cl)c1-c1nnc2ccc(N3CCOCC3)nn12 | 11.6 µM [falling, partial curve] | 
4 | COc1ccc(/C(C)=N/N2CCCCC2)c(O)c1 | 14.1 µM [rising, single point] | 
5 | CCOC(=O)c1c(C)c(C)n(Cc2ccc(OC)c(OC)c2)c1C | 6.51 µM [rising, partial curve, poor fit] | 
6 | Cc1cc(C(=O)COC(=O)Cc2ccc(Cl)cc2)c(C)n1C | 0.00461 µM [rising, full curve, poor fit] | 
7 | O=C1/C(=C\c2ccccn2)SC(=S)N1c1ccc(S(=O)(=O)Nc2nccs2)cc1 | 22.4 µM [falling, single point] | 
8 | Cc1ccccc1N=C(NOCc1ccc(Cl)cc1Cl)c1nonc1N | 18.4 µM [falling, single point] | 
9 | COCCCNC(=O)C1CCCN(S(C)(=O)=O)C1 (centres undefined) | 0.116 µM [falling, full curve] | 
10 | COCCCNC(=S)N(CCCO)Cc1cc2cc3c(cc2[nH]c1=O)OCO3 | 7.94 µM [rising, partial curve, poor fit] | 
11 | CCc1cc2c(Sc3nc4ccccc4s3)ncnc2s1 | 3.98 µM [falling, single point] | 
12 | Cc1ccc(-n2c3c(c(O)c(-c4ccccc4)c2=O)C(=O)CC(C)(C)C3)cc1 | 23.1 µM [falling, partial curve, poor fit] | 
13 | CC1(C)C[C@@H]2C[C@@](C)(CN2C(=O)c2cc(COc3cccc(C(F)(F)F)c3)on2)C1 | 17.8 µM [falling, partial curve, poor fit] | 
14 | Cc1ccc(S(=O)(=O)N2CCN(C(=O)c3ccc4ccccc4n3)CC2)c(C)c1 | 1.46 µM [rising, full curve, poor fit] | 
15 | COc1ccc(/C=N/NC(=S)Nc2cc(S(=O)(=O)N3CCOCC3)ccc2N2CCOCC2)cc1O | 0.366 µM [rising, full curve] | 
16 | COc1ccc(OCC(=O)Nc2ccccc2C(=O)NC2CC2)cc1 | 4.11 µM [rising, full curve, poor fit] | 

Row | SMILES | AC50 [1] | AC50 [2]
17 | CCc1cc2c(=O)c(-c3ccc4c(c3)OCCO4)coc2c(CN2CCCCC2C)c1O (centres undefined) | 8.91 µM [falling, partial curve, poor fit] | 7.08 µM [rising, partial curve, poor fit]
18 | Cc1ccc(OCCC(=O)Nc2ccc3c(c2)OCCCO3)cc1 | 0.259 µM [rising, partial curve] | 
19 | CC(=O)Nc1ccc(C(=O)COC(=O)C2CCCCC2)c(F)c1 | 20.6 µM [rising, partial curve, poor fit] | 
20 | O=C(N/N=C/c1ccc([N+](=O)[O-])cc1)c1[nH]ncc1Br | 1.41 µM [falling, full curve] | 
21 | CCN(CC)C(=O)C1CCCc2c1[nH]c1ccc(Cl)cc21 (centres undefined) | 7.31 µM [falling, full curve] | 5.17 µM [rising, full curve, poor fit]
22 | N/C(=N\OC(=O)CSc1ccccc1)c1ccncc1 | 0.447 µM [rising, full curve, poor fit] | 
23 | Cc1ccnc(NC(=O)c2oc3ccccc3c2C)c1 | 18.4 µM [falling, single point] | 
24 | CCN(CC)S(=O)(=O)c1ccc(C(=O)N2CCN(c3ncccn3)CC2)cc1 | 5.62 µM [rising, full curve, poor fit] | 
25 | O=C1CC(c2ccccc2)=Nc2ccc(Br)cc2N1 | 11.2 µM [rising, partial curve] | 
26 | CC(C)c1[nH]nc2c1C(C(C)C)C(C#N)=C(N)O2 (centres undefined) | 20 µM [falling, single point] | 
27 | CC1=NN(C(=O)c2ccc(C)cc2)C(O)(C(F)(F)OC(F)(F)F)C1 (centres undefined) | 5.62 µM [falling, full curve] | 
28 | Cc1cccc(C)c1NC(=O)CN(C)CC(=O)Nc1sc2c(c1C(N)=O)CCC2 | 0.58 µM [rising, full curve, poor fit] | 
29 | COc1ccccc1NC(=O)c1c(C)oc2c1CCCC2 | 6.51 µM [rising, full curve] | 
30 | CC(=O)Nc1ccc(-c2csc(NNC(=O)c3ccccc3)n2)cc1 | 12.6 µM [rising, partial curve, poor fit] | 
31 | CNc1c(NS(=O)(=O)c2ccc(OC)c(Cl)c2)c(=O)oc2ccccc12 | 17.8 µM [rising, single point] | 25.1 µM [falling, single point]

In the list so far, these contain an NH in an aromatic ring:
Row | SMILES | AC50 [1] | AC50 [2]
10 | COCCCNC(=S)N(CCCO)Cc1cc2cc3c(cc2[nH]c1=O)OCO3 | 7.94 µM [rising, partial curve, poor fit] | 
20 | O=C(N/N=C/c1ccc([N+](=O)[O-])cc1)c1[nH]ncc1Br | 1.41 µM [falling, full curve] | 
21 | CCN(CC)C(=O)C1CCCc2c1[nH]c1ccc(Cl)cc21 (centres undefined) | 7.31 µM [falling, full curve] | 5.17 µM [rising, full curve, poor fit]
26 | CC(C)c1[nH]nc2c1C(C(C)C)C(C#N)=C(N)O2 (centres undefined) | 20 µM [falling, single point] | 
